No constants are given. Whether binding was seen depends on the method and setting. Some entries that bind do so weakly or less than the wild type.
Target: T1, soluble recombinant hCD43 20-253 expressed by COLO 205 cells (human) (UniProt P16150)
T1 sequence (glycoform of COLO 205 cells, looked up): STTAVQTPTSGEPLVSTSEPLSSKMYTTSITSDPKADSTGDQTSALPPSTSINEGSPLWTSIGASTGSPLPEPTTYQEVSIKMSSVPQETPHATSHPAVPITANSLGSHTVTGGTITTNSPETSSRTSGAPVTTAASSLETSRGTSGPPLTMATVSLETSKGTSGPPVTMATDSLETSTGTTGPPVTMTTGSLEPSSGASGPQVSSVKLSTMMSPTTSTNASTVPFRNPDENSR
Test: Western blot of protein A purified soluble CD43

Row | Binder | binding
1 | monoclonal antibody 51-41 (antibody, V domains shown) VH: EVQLQQSGTVLARPGASVKMSCKASGYSFTSYWMHWVKQRTGQGLEWIGAISPGDGDTTYNQKFTGKAKLTAVTSASTAYMELSSLTHEDSAVYYCTRRDGSYQVAWFAYWGRGTLVTVSA VL: DVLMTQTPLSLPVSLGDQASISCRSSQSIVHSNGNTYLEWFLQKPGQSPKLLIYKVSNRFSGVPDRFSGSGSGTDFTLKISRVEAEDLGVYYCFQGSHVPFTFGSGTKLEIK | binds
2 | monoclonal antibody 138-10 (antibody, V domains shown) VH: EVQLQQSGTVLARPGASVKMSCKASGYSFISYWMHWVKQRPGQGLEWIGAISPGDSDTTYNQRFTGKAKLTAVTSASTAYMELSSLTNEDSAVYYCIRRDGNYQVAWFAYWGQGTLVTVSA VL: DVLMTQTPLSLPVSLGDQASISCRSSQSIVHSNGNTYLEWYLQKPGQSPKLLIYKVSNRFSGVPDRFSGSGSGTDFTLKISRVEAEDLGVYYCFQGSHVPFTFGSGTKLEIK | binds

From patent US20160139131A1 (BIOALLIANCE C V, published 2016)
